In article doi:10.1101/2021.09.01.458589:
No constants are given. Whether binding was seen depends on the method and setting. In cells and extracts the contact can be indirect. Where a sequence is shown, tags or fusion partners need not be part of it.

Target: T1, RPM1-interacting protein4 of Arabidopsis, N-terminally FLAG-tagged (FLAG:AtRIN4) (Arabidopsis), Q8GYN5
T1 chain: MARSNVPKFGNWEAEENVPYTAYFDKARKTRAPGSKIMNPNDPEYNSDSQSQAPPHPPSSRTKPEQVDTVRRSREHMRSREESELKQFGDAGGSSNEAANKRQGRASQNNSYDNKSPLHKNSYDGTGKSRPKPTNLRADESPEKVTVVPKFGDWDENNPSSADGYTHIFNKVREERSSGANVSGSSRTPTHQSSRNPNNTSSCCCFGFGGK
Test: co-IP
Settings: remark: other sources report otherwise

B1: RPM1-interacting protein4 of Arabidopsis, N-terminally FLAG-tagged (FLAG:AtRIN4), Q8GYN5 1-211 (protein)
chain: MARSNVPKFGNWEAEENVPYTAYFDKARKTRAPGSKIMNPNDPEYNSDSQSQAPPHPPSSRTKPEQVDTVRRSREHMRSREESELKQFGDAGGSSNEAANKRQGRASQNNSYDNKSPLHKNSYDGTGKSRPKPTNLRADESPEKVTVVPKFGDWDENNPSSADGYTHIFNKVREERSSGANVSGSSRTPTHQSSRNPNNTSSCCCFGFGGK
- binding: no binding
